## Cleaved PARP after 72 h of treatment

From a melanoma drug combination screen (doi:10.1371/journal.pone.0140310); values rounded.

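Human melanoma cells were exposed to two drugs together for 72 h in 1,536-well plates and read by automated microscopy after fixing and staining. Values are the share of nuclei positive for cleaved PARP as a percentage of the same share in the DMSO control: 100 is the control level, higher means more apoptosis. Every drug was used at one fixed concentration, the higher of two screened. No replicate spread is given; individual values may be noisy. The marker varies much from line to line, for technical or biological reasons.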 This is part of the screen, not chosen by result. An entry leaves out what has no value listed here. A dash means that no value is listed here.

Drug key:
tipifarnib, 0.05 µM: Cn1cncc1[C@@](N)(c1ccc(Cl)cc1)c1ccc2c(c1)c(-c1cccc(Cl)c1)cc(=O)n2C
AZD7762, 0.1 µM: NC(=O)Nc1cc(-c2cccc(F)c2)sc1C(=O)N[C@H]1CCCNC1
vorinostat, 0.4 µM: O=C(CCCCCCC(=O)Nc1ccccc1)NO
etoposide, 0.1 µM: COc1cc([C@@H]2c3cc4c(cc3[C@@H](O[C@@H]3O[C@@H]5CO[C@@H](C)O[C@H]5[C@H](O)[C@H]3O)[C@H]3COC(=O)[C@H]23)OCO4)cc(OC)c1O

Cell line | vorinostat + tipifarnib | vorinostat + etoposide | tipifarnib + AZD7762 | etoposide + AZD7762 | tipifarnib + etoposide | vorinostat + AZD7762
SK-MEL-30 | 192 | 74.7 | 352 | 353 | - | 350
SK-MEL-28 | 160 | 50.4 | 212 | 102 | 170 | 635
WM3619 | 178 | 145 | 269 | 515 | 123 | 490
C32 | 116 | 43.8 | 476 | 266 | 103 | 340
MZ2-MEL | 178 | 96.6 | 141 | 121 | 54.8 | 61.7
WM115 | 182 | 159 | 286 | 124 | 106 | 291
IPC-298 | 121 | 358 | 147 | 83.9 | 61.9 | 506
MeWo | 78.7 | 148 | 277 | 332 | 108 | 354
WM1716 | 127 | 121 | 154 | 231 | 22.8 | 276
COLO 800 | 130 | 110 | 163 | 219 | 129 | 262
WM3526 | 123 | 150 | 1290 | 870 | 110 | 862
RPMI-7951 | 126 | 101 | 248 | 652 | 102 | 161
UACC-257 | 296 | 152 | 63.5 | 33.3 | 304 | 79.2
COLO 792 | 129 | 97.8 | 540 | 572 | 106 | 167
WM451Lu | 107 | 134 | 250 | 162 | 255 | 364
IST-MEL1 | 166 | 142 | 177 | 47.3 | 46.7 | 319
WM1745 | 399 | 229 | 101 | 105 | 92.8 | 116
SK-MEL-5 | 218 | 164 | 222 | 43.4 | 126 | 353
G-361 | 62.3 | 111 | 148 | 103 | 136 | 161
LB2518-MEL | 163 | 279 | 227 | 75.2 | 143 | 84.5
LOX IMVI | 138 | - | 222 | 161 | 36.3 | 50.3
RVH-421 | 56.1 | 96.7 | 80.8 | 37.1 | 40.4 | 61.6
SK-MEL-2 | 160 | 280 | 339 | 385 | 305 | 193
A101D | 89.1 | - | 271 | 78.6 | 68.9 | 138
UACC-62 | 178 | 134 | 154 | 235 | 131 | 164
A2058 | 90.1 | 151 | 393 | 504 | 129 | 224
COLO 829 | 107 | 130 | 198 | 28.8 | 62.4 | 157
MEL-HO | 79.8 | 42.6 | 88.8 | 78.8 | 69.9 | 94.3

Once more, the final 2:

{"cell line": "COLO 829", "vorinostat + tipifarnib": 107, "vorinostat + etoposide": 130, "tipifarnib + AZD7762": 198, "etoposide + AZD7762": 28.8, "tipifarnib + etoposide": 62.4, "vorinostat + AZD7762": 157}
{"cell line": "MEL-HO", "vorinostat + tipifarnib": 79.8, "vorinostat + etoposide": 42.6, "tipifarnib + AZD7762": 88.8, "etoposide + AZD7762": 78.8, "tipifarnib + etoposide": 69.9, "vorinostat + AZD7762": 94.3}